Results reported in article PMC11069427.
For at least one entry, the source does not settle the construct or the ends of the probe.

System: MdWOX4-1
Test: EMSA
Conditions: Light Shift Chemiluminescent EMSA Kit (Thermo); pH and temperature not stated. A mutant probe ARF3-Bio-mut; recombinant protein; protein details: GST (pGEX-4T-1); label: biotin

TAATCATACTCGGTAGCCATTAATCATCCACGC (double strand) [LBD16-2-Bio-MdWOX probe]
binding result: binds
